Key:
Conditions in all cases: 490 nm
[1] = tested on: staph. aureus biofilm; assay: staph. aureus biofilm, optical density reading of turbidity; format: cell-based, staphylococcus aureus
Protocol: Up to 8 different antibiotics or biocides can be tested by using 1 row (A-H) for each antimicrobial reagent. […] Rinse the remaining projections in PBS using a troughed vessel 20 and place the colonized projections into the 96 well antibiotic plate and incubate overnight at 37° C. […] (3) From the freshly sonicated plate remove 0.02 ml of the medium from each well and spot plate neat; and 0.025 ml from each well to prepare a serial dilution (10^−1 to 10^−6) and spot plate 0.02 ml (dilutions can be done in microtiter plates, one for each antibiotic). Place the plate containing the remaining medium and bacteria to incubate at 37° C., overnight. Day 4: Assay the sessile survival, by for example reading the plate incubated overnight at 490 nm or by counting the colonies on the plates to determine the actual number of surviving bacteria, or by using some other method known in the art.

[2] = tested on: Escherichia coli planktonic bacteria; assay: Escherichia coli planktonic bacteria, optical density reading of turbidity; format: cell-based
Protocol: (§1) Up to 8 different antibiotics or biocides can be tested by using 1 row (A-H) for each antimicrobial reagent. […] Rinse the remaining projections in PBS using a troughed vessel 20 and place the colonized projections into the 96 well antibiotic plate and incubate overnight at 37° C.

[3] = tested on: staph. aureus planktonic bacteria; assay: staph. aureus planktonic bacteria, optical density reading of turbidity; format: cell-based, staphylococcus aureus
Protocol: as §1

[4] = well 5 of doubling dilutions, well 3: 1000 μg/mL to well 12: 2 μg/mL
[5] = well 6 of doubling dilutions, well 3: 1000 μg/mL to well 12: 2 μg/mL ([…] implied)
[6] = well 7 of doubling dilutions, well 3: 1000 μg/mL to well 12: 2 μg/mL
[7] = well 8 of doubling dilutions, well 3: 1000 μg/mL to well 12: 2 μg/mL
[8] = well 9 of doubling dilutions, well 3: 1000 μg/mL to well 12: 2 μg/mL
[9] = well 10 of doubling dilutions, well 3: 1000 μg/mL to well 12: 2 μg/mL ([…] implied)
[10] = well 11 of doubling dilutions, well 3: 1000 μg/mL to well 12: 2 μg/mL

For `O=C(O)c1cn(C2CC2)c2cc(N3CCNCC3)c(F)cc2c1=O` [G, Ciprofloxacin], the “optical density reading of turbidity, staph. aureus biofilm” value ([1]; well 3: 1000 μg/mL antibiotic) was “.073”, the “optical density reading of turbidity, staph. aureus biofilm” value ([1]; well 4: 500 μg/mL antibiotic) was “.072” and the “optical density reading of turbidity, staph. aureus biofilm” value [1, 4] was “.073”. The “optical density reading of turbidity, staph. aureus biofilm” value [1, 5] was “.778”, the “optical density reading of turbidity, staph. aureus biofilm” value [1, 6] was “.822” and the “optical density reading of turbidity, staph. aureus biofilm” value [1, 7] was “.793”. For the same compound, the “optical density reading of turbidity, staph. aureus biofilm” value [1, 8] was “.121”, the “optical density reading of turbidity, staph. aureus biofilm” value [1, 9] was “.071” and the “optical density reading of turbidity, staph. aureus biofilm” value [1, 10] was “.072”. The “optical density reading of turbidity, staph. aureus biofilm” value ([1]; well 12: 2 μg/mL antibiotic) was “.068”, the “optical density reading of turbidity, Escherichia coli planktonic bacteria” value ([2]; well 3: 1000 μg/mL antibiotic) was “.131” and the “optical density reading of turbidity, Escherichia coli planktonic bacteria” value ([2]; well 4: 500 μg/mL antibiotic) was “.136”. For the same compound, the “optical density reading of turbidity, Escherichia coli planktonic bacteria” value [2, 4] was “.136”, the “optical density reading of turbidity, Escherichia coli planktonic bacteria” value [2, 5] was “.140” and the “optical density reading of turbidity, Escherichia coli planktonic bacteria” value [2, 6] was “.132”. For the same compound, the “optical density reading of turbidity, Escherichia coli planktonic bacteria” value [2, 7] was “.139”, the “optical density reading of turbidity, Escherichia coli planktonic bacteria” value [2, 8] was “.136” and the “optical density reading of turbidity, Escherichia coli planktonic bacteria” value [2, 9] was “.138”. The “optical density reading of turbidity, Escherichia coli planktonic bacteria” value [2, 10] was “.133”, the “optical density reading of turbidity, Escherichia coli planktonic bacteria” value ([2]; well 12: 2 μg/mL antibiotic) was “.138” and the “optical density reading of turbidity, staph. aureus planktonic bacteria” value ([3]; well 3: 1000 μg/mL antibiotic) was “.094”. The “optical density reading of turbidity, staph. aureus planktonic bacteria” value ([3]; well 4: 500 μg/mL antibiotic) was “.072”, the “optical density reading of turbidity, staph. aureus planktonic bacteria” value [3, 4] was “.077” and the “optical density reading of turbidity, staph. aureus planktonic bacteria” value [3, 5] was “.077”. For the same compound, the “optical density reading of turbidity, staph. aureus planktonic bacteria” value [3, 6] was “.079”, the “optical density reading of turbidity, staph. aureus planktonic bacteria” value [3, 7] was “.077” and the “optical density reading of turbidity, staph. aureus planktonic bacteria” value [3, 8] was “.077”. For the same compound, the “optical density reading of turbidity, staph. aureus planktonic bacteria” value [3, 9] was “.080”, the “optical density reading of turbidity, staph. aureus planktonic bacteria” value [3, 10] was “.074” and the “optical density reading of turbidity, staph. aureus planktonic bacteria” value ([3]; well 12: 2 μg/mL antibiotic) was “.069”.
